Some of the results follow.
Columns and labels:
Experiment in all cases: log2 fold change, soluble protein after heating vs DMSO (PISA); higher = thermal stabilisation; K562 lysate, 10 uM; active = over 0.2 and 3.5 SD of the protein, either way, in both replicates (recomputed)
[1] = compound: C1=CC=C(C=C1)[C@H](COC2=CC3=C(C=C2)NC(=O)N3)NC(=O)C4=CC=CN(C4=O)CC5=CC(=C(C=C5)F)F
Summary of the method: (§1)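 Values give the log-two fold change in thermal stability against solvent controls, from duplicates. Crude K562 extract at 1 mg/mL protein, made by dounce homogenisation in PBS pH 7.4 with 1 mM MgCl2, was treated with 10 μM compound for 30 min. After 3 min heating across 48°C-58°C, aliquots were pooled, adjusted to 0.5% NP-40 at 4°C and centrifuged at 21,000xg for 90 min. The supernatant was measured by TMTpro 16plex LC-MS/MS with channel sums equalised.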

The chains behind the UniProt entries cited, without tags or fusion partners. Where a name states a change or a piece, a line headed by the entry shows the natural chain unless it says otherwise.
UniProt Q9BQ95: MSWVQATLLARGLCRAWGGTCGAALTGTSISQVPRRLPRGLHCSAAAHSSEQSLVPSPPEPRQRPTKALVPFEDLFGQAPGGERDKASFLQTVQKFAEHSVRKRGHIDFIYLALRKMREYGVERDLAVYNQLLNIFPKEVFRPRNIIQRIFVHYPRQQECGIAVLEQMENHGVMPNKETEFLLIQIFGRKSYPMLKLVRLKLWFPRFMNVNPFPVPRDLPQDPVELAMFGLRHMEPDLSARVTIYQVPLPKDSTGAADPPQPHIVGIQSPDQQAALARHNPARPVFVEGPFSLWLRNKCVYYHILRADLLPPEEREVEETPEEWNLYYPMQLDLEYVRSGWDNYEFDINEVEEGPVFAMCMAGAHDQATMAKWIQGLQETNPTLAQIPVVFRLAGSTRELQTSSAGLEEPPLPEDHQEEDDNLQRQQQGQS
UniProt Q9H9B1: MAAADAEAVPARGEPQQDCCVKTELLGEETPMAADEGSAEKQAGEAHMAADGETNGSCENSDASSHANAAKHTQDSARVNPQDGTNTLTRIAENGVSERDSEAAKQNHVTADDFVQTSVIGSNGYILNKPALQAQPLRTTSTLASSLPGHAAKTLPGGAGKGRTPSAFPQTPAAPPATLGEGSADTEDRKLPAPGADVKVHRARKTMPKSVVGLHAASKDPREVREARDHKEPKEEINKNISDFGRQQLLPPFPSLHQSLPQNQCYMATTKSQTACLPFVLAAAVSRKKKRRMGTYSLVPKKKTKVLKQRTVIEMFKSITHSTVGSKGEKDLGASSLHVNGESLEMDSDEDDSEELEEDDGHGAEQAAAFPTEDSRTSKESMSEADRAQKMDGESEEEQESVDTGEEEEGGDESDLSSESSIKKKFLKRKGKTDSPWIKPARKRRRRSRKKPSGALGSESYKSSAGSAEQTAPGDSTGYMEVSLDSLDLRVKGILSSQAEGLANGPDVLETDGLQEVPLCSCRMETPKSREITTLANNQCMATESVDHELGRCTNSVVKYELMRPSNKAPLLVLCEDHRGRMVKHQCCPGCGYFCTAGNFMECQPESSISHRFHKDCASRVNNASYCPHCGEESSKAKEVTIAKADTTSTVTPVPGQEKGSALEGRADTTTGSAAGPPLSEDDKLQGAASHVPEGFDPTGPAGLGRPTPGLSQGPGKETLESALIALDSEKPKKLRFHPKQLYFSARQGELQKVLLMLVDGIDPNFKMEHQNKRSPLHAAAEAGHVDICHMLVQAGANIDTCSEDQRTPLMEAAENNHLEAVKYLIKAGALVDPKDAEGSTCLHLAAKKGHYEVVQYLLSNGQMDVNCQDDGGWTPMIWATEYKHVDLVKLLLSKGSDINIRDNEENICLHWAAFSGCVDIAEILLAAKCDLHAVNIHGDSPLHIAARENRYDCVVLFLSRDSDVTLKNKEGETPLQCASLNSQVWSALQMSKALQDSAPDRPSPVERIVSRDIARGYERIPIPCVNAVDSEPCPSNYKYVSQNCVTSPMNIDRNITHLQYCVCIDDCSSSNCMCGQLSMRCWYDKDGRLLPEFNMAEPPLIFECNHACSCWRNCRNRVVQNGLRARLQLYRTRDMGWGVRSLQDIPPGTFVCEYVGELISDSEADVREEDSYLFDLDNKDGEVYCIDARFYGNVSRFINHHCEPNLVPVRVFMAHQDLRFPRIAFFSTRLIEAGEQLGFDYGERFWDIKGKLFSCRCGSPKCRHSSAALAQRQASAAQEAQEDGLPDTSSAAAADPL
EEF1AKMT2, A0A494BZY7, UniProt A0A494BZY7, whole entry, looked up: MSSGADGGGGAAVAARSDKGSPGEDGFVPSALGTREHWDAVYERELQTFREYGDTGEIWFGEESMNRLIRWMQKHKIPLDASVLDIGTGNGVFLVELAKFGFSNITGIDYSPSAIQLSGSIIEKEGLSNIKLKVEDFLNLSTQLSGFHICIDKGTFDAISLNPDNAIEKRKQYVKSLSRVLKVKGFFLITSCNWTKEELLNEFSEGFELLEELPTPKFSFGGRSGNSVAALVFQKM
UniProt Q9H2P9: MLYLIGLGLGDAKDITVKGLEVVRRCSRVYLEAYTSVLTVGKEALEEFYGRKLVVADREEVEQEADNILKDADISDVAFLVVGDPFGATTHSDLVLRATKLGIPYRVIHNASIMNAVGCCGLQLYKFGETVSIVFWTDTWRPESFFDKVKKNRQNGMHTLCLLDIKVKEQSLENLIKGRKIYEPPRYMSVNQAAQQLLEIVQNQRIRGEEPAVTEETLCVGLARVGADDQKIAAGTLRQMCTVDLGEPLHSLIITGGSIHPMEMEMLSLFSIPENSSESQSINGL
UniProt Q9NZJ0: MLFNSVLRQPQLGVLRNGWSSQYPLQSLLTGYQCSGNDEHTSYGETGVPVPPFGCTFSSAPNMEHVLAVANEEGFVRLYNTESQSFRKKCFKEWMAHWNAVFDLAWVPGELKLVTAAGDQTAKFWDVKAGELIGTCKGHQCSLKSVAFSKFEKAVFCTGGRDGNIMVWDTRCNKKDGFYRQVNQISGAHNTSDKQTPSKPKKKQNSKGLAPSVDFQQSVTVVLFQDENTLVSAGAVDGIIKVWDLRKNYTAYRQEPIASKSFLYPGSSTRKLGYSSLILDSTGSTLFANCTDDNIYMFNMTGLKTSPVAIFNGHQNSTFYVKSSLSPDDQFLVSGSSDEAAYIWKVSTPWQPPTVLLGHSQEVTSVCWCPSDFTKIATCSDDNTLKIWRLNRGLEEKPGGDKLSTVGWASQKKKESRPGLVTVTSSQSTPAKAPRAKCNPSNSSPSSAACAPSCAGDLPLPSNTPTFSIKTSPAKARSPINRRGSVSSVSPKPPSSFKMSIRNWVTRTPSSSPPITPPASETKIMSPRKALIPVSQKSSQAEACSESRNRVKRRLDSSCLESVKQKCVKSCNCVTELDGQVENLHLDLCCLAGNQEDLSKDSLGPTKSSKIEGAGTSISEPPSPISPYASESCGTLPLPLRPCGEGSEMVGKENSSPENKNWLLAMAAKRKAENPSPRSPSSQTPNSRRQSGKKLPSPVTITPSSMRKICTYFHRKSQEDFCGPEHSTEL
UniProt Q9H223: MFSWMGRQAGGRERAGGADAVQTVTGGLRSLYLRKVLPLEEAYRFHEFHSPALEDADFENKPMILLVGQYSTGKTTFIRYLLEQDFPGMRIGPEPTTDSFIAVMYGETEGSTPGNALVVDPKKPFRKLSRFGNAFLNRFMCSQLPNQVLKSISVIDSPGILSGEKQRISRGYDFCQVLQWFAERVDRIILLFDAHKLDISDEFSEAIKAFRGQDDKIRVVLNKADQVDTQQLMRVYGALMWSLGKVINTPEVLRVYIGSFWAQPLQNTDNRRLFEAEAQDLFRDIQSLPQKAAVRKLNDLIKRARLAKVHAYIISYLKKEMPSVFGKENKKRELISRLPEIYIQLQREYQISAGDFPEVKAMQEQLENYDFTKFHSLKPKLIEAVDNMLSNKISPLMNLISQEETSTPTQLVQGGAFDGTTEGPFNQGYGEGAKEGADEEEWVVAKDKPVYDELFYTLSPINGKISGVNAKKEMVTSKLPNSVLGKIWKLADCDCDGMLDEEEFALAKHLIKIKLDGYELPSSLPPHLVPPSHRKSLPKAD
UniProt Q9NY33: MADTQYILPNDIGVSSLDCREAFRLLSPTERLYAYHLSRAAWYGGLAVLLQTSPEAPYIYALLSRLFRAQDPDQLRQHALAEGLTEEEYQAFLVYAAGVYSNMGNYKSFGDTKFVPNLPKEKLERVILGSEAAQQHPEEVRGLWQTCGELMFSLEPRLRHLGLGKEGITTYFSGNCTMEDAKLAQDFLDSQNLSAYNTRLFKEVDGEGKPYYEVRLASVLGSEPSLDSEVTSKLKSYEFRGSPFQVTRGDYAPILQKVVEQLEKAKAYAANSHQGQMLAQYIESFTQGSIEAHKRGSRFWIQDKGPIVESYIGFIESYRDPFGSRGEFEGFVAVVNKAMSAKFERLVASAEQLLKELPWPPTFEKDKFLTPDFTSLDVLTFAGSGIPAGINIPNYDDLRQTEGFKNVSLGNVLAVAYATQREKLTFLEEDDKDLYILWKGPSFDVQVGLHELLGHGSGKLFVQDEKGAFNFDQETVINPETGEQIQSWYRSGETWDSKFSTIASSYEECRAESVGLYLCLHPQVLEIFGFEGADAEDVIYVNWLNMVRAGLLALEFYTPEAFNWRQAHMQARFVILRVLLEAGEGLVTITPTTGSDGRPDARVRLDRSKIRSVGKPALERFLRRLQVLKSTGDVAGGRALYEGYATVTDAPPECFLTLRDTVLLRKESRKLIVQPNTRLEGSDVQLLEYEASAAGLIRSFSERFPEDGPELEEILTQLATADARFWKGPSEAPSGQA
UniProt Q9NP97, whole entry, looked up: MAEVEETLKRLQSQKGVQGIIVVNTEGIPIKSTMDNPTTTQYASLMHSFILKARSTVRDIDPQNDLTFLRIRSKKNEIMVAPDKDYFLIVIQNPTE
UniProt O75923: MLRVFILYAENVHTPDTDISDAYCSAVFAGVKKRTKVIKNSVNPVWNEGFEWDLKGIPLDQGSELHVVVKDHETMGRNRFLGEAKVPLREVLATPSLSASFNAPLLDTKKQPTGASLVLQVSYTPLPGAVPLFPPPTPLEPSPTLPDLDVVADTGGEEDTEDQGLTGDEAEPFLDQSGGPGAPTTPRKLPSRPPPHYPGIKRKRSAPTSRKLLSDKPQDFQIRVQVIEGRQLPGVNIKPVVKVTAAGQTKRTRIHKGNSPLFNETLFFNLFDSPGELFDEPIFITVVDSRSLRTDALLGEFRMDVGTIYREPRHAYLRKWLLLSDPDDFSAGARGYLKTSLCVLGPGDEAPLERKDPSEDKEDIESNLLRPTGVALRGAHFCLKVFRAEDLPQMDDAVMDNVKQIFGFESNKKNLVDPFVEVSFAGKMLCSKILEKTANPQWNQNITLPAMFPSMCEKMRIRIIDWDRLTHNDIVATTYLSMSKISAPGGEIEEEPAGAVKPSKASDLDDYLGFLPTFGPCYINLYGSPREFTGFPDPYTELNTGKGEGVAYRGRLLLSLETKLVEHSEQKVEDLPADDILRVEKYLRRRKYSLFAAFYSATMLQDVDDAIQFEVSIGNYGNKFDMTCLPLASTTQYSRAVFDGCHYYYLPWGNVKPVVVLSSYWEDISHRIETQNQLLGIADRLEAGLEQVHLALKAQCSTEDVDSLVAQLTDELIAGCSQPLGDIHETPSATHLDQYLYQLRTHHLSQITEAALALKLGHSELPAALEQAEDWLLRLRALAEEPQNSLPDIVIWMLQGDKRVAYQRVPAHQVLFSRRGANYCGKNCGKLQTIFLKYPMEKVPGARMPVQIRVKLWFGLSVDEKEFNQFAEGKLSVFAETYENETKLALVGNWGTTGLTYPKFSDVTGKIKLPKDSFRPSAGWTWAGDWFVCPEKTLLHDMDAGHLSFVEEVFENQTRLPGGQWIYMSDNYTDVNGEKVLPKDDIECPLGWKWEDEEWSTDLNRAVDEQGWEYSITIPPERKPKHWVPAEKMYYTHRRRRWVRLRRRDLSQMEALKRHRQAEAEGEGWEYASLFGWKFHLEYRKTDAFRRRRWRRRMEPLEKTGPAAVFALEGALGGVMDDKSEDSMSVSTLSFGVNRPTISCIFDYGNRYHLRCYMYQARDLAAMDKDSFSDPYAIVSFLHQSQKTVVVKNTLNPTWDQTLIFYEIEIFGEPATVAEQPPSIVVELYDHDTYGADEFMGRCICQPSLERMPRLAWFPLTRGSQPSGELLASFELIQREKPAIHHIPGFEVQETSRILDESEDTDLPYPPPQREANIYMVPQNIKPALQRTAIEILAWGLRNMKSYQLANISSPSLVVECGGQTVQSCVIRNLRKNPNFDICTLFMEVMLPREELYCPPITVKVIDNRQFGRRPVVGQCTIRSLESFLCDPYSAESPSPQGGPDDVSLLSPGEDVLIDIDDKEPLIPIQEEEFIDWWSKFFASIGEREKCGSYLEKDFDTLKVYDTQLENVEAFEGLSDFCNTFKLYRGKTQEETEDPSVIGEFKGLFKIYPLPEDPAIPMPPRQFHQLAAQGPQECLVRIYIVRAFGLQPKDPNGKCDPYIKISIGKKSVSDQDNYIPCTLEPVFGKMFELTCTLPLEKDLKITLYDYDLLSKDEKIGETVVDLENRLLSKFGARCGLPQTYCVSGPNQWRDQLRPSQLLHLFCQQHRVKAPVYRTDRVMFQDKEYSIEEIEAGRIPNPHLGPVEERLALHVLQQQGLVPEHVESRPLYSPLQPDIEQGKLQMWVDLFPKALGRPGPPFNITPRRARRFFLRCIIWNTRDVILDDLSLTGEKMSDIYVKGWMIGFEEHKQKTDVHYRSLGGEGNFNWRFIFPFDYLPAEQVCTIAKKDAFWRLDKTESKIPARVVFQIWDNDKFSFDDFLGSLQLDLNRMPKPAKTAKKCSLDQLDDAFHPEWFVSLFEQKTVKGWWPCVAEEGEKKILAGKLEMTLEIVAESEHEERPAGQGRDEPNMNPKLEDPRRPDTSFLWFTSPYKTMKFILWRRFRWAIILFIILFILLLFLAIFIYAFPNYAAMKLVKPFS

[2] = compound: CC1=C(SC2=C1C(=N[C@H](C3=NN=C(N32)C)CC(=O)N)C4=CC=C(C=C4)Cl)C
Summary of the method: as §1

[3] = compound: CC1=C2C(=CC=C1)N=C(N(C2=O)C3=CC=CC=C3C)CN4C=NC5=C(N=CN=C54)N
Summary of the method: as §1

[4] = compound: Cc1sc2c(c1C)C(c1ccc(Cl)cc1)=N[C@@H](CC(=O)OC(C)(C)C)c1nnc(C)n1-2
Summary of the method: as §1

[5] = compound: c1ccc([C@@H]2C[C@H]2NC2CCNCC2)cc1
Summary of the method: as §1

Measured: log2 fold change

EED, A0A5F9ZI63
inactive: [1] 0.022 | [2] -0.01 | [3] 0.027 | [4] -0.007 | [5] -0.011

E2F4 (UniProt Q16254)
inactive: [1] -0.043 | [2] -0.063 | [3] -0.004 | [4] 0.038 | [5] -0.042

ECSIT (UniProt Q9BQ95)
inactive: [1] 0.097 | [2] 0.107 | [3] 0.032 | [4] 0.008 | [5] 0.02

DUSP3 (UniProt P51452)
inactive: [1] 0.009 | [2] 0.018 | [3] -0.021 | [4] -0.003 | [5] -0.013

DPP7 (UniProt Q9UHL4)
inactive: [1] 0.019 | [2] -0.036 | [3] 0.04 | [4] -0.034 | [5] 0.01

EHMT1 (UniProt Q9H9B1)
inactive: [1] 0.001 | [2] 0.009 | [3] 0.068 | [4] 0.191 | [5] -0.05

EEF1AKMT2, A0A494BZY7
inactive: [1] 0.027 | [2] -0.047 | [3] -0.034 | [4] 0 | [5] 0.017

DPH5 isoform 5 (UniProt Q9H2P9)
inactive: [1] 0.047 | [2] -0.024 | [3] 0.021 | [4] -0.144 | [5] -0.118

EHBP1 isoform 2 (UniProt Q8NDI1)
inactive: [1] 0.039 | [2] -0.037 | [3] 0.046 | [4] -0.014 | [5] 0.071

ECE1 (UniProt P42892)
inactive: [1] -0.053 | [2] 0.074 | [3] 0.001 | [4] -0.006 | [5] 0.002

DTL (UniProt Q9NZJ0)
inactive: [1] 0.033 | [2] 0.038 | [3] 0.089 | [4] -0.032 | [5] -0.01

Looked up one by one from above, two records:
E2F4 (UniProt Q16254)
inactive: [1] -0.043 | [2] -0.063 | [3] -0.004 | [4] 0.038 | [5] -0.042

DUSP3 (UniProt P51452)
inactive: [1] 0.009 | [2] 0.018 | [3] -0.021 | [4] -0.003 | [5] -0.013

Further entries.

DYNC1I2 isoform 2 (UniProt Q13409)
inactive: [1] -0.011 | [2] 0.253 | [3] -0.005 | [4] 0.082 | [5] 0.155

EEFSEC (UniProt P57772)
inactive: [1] -0.033 | [2] -0.003 | [3] 0.009 | [4] -0.003 | [5] 0.015

DSCC1 (UniProt Q9BVC3)
inactive: [1] -0.073 | [2] -0.021 | [3] 0.015 | [4] 0.122 | [5] 0.076

EHD4 (UniProt Q9H223)
inactive: [1] -0.033 | [2] 0.007 | [3] 0.042 | [4] 0.036 | [5] 0.06

DTWD1 (UniProt Q8N5C7)
inactive: [1] -0.003 | [2] 0.075 | [3] -0.004 | [4] 0.039 | [5] 0.095

DUSP12 (UniProt Q9UNI6)
inactive: [1] -0.014 | [2] 0.001 | [3] 0.029 | [4] 0.018 | [5] 0.003

DST (UniProt Q03001)
inactive: [1] -0.002 | [2] 0.042 | [3] 0.111 | [4] -0.061 | [5] -0.077

EBAG9 isoform 2 (UniProt O00559)
inactive: [1] 0.01 | [2] -0.067 | [3] -0.001 | [4] -0.168 | [5] -0.065

DPP3 (UniProt Q9NY33)
inactive: [1] -0.011 | [2] 0.026 | [3] -0.005 | [4] 0.03 | [5] 0.048

ECPAS (UniProt Q5VYK3)
inactive: [1] -0.032 | [2] 0.013 | [3] 0.053 | [4] 0.007 | [5] 0.047

DYNLRB1 (UniProt Q9NP97)
inactive: [1] 0.083 | [2] -0.003 | [3] -0.034 | [4] -0.019 | [5] 0.071

DYSF isoform 13 (UniProt O75923)
inactive: [1] -0.047 | [2] -0.021 | [3] -0.067 | [4] -0.03 | [5] 0.034

DPY19L4 (UniProt Q7Z388)
inactive: [1] -0.103 | [2] 0.139 | [3] -0.027 | [4] -0.016 | [5] -0.025

From the supplement of paper PMC10849652
